From US20260124194A1 (priority 2022, published 2026) come the findings set out here.

The assay has as its system Rb1 cKO retinoblastoma mice.

`CC(C)n1c(=O)c(C(=O)N[C@H]2C[C@H]3CC[C@@H](C2)N3C[C@@H](O)CN(C)S(C)(=O)=O)cc2ccccc21` [velusetrag, 1-isopropyl-2-oxo-1,2-dihydroquinoline-3-carboxylic acid {(1S,3R,5R)-8-[(R)-2-hydroxy-3-(methanesulfonyl-methyl-amino)propyl]-8-azabicyclo[3.2.1]oct-3-yl}amide]: the “knock out mice that died” value (Rb1 cKO mice, 1 or 3 mg/kg ip, control group 40% died within 15 days after start of treatment) is reported as 10%. Moreover, for the setting “mouse, in vivo, ip”, the Lethality was 1/10.
